No constants are given. Whether binding was seen depends on the method and setting. In cells and extracts the contact can be indirect. Some entries that bind do so weakly or less than the wild type.

Amino acid sequences for entries named in this document (tags omitted). Residues count along the entry.
UniProt Q96J02: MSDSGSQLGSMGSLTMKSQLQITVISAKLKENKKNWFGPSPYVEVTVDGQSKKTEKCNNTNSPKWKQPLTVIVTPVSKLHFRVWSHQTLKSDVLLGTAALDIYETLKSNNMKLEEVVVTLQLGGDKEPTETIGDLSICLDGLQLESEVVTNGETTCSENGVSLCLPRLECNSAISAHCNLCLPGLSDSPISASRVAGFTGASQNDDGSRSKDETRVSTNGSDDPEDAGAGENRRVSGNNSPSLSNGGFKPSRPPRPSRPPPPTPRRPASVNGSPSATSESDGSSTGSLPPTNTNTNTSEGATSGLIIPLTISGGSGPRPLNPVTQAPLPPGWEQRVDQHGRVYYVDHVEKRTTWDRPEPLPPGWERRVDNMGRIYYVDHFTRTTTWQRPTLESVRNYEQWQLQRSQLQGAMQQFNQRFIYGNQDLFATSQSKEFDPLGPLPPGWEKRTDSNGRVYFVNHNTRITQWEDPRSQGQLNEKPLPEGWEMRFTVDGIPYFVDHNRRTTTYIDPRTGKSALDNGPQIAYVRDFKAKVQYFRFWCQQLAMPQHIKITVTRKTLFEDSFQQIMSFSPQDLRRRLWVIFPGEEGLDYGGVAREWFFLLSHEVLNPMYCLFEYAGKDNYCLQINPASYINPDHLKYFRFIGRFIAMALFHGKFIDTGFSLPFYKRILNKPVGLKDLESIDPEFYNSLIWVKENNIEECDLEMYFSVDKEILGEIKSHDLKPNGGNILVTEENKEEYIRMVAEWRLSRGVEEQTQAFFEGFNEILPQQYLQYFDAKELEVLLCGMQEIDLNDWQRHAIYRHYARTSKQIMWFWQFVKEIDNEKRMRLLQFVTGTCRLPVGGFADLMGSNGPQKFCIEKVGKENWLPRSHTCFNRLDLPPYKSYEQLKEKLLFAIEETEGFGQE
UniProt P05106, residues 27-788: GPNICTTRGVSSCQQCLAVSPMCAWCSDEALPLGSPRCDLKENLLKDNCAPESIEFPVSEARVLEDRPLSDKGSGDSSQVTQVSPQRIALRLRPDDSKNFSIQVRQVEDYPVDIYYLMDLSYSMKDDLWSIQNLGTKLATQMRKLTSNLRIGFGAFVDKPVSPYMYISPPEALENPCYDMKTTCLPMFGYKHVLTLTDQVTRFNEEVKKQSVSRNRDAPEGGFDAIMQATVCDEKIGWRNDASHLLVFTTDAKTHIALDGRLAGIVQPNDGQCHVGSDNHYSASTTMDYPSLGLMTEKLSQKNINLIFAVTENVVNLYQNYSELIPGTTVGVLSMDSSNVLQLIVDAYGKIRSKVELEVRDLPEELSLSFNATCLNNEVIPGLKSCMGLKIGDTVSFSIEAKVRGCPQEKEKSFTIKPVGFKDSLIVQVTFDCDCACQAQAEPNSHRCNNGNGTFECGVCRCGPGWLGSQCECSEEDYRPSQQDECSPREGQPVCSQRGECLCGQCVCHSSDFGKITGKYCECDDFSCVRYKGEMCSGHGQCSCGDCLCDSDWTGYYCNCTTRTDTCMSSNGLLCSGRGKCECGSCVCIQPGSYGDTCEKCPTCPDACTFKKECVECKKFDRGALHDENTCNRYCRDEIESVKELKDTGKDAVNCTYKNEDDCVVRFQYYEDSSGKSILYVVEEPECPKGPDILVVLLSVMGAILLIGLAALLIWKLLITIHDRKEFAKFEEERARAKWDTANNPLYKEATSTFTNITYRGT

In this assay the target is ITCH (human (endogenous in primary ectopic endometrial stromal cells)) (UniProt Q96J02). Description: co-IP; lysates of ectopic ESCs in RIPA lysis buffer, incubated with anti-ITCH, anti-ITGB3 or control IgG overnight at 4 °C, protein A/G Plus agarose beads 2 h at 4 °C, washed three times in lysis buffer, Western blot. For orientation: Immunoblotting shows a protein as a band on a membrane.

Take “Integrin β3 (ITGB3) (from UniProt P05106 27-788) (receptor)”: the binding result is listed as “binds”.

The record behind these values is article PMC10526369.
